The values below come from publication PMC9334634.

These are yes or no findings as the source states them, for the method shown. In cells and extracts the contact can be indirect. A result given as binding can be weak or reduced; the word gives no strength.

In this assay the target is VDAC (human (endogenous in HepG2)). Kind of assay: co-IP; CHAPS lysates of HepG2 EV cells; IP with anti-VDAC antibody overnight in the cold, magnetic protein A/G beads, immunoblot with HKDC1 antibody; HKDC1-KO cells as control.

B1: hexokinase domain containing 1 (HKDC1) (protein, UniProt Q2TB90-1 1-917)
chain: MFAVHLMAFYFSKLKEDQIKKVDRFLYHMRLSDDTLLDIMRRFRAEMEKGLAKDTNPTAAVKMLPTFVRAIPDGSENGEFLSLDLGGSKFRVLKVQVAEEGKRHVQMESQFYPTPNEIIRGNGTELFEYVADCLADFMKTKDLKHKKLPLGLTFSFPCRQTKLEEGVLLSWTKKFKARGVQDTDVVSRLTKAMRRHKDMDVDILALVNDTVGTMMTCAYDDPYCEVGVIIGTGTNACYMEDMSNIDLVEGDEGRMCINTEWGAFGDDGALEDIRTEFDRELDLGSLNPGKQLFEKMISGLYLGELVRLILLKMAKAGLLFGGEKSSALHTKGKIETRHVAAMEKYKEGLANTREILVDLGLEPSEADCIAVQHVCTIVSFRSANLCAAALAAILTRLRENKKVERLRTTVGMDGTLYKIHPQYPKRLHKVVRKLVPSCDVRFLLSESGSTKGAAMVTAVASRVQAQRKQIDRVLALFQLTREQLVDVQAKMRAELEYGLKKKSHGLATVRMLPTYVCGLPDGTEKGKFLALDLGGTNFRVLLVKIRSGRRSVRMYNKIFAIPLEIMQGTGEELFDHIVQCIADFLDYMGLKGASLPLGFTFSFPCRQMSIDKGTLIGWTKGFKATDCEGEDVVDMLREAIKRRNEFDLDIVAVVNDTVGTMMTCGYEDPNCEIGLIAGTGSNMCYMEDMRNIEMVEGGEGKMCINTEWGGFGDNGCIDDIWTRYDTEVDEGSLNPGKQRYEKMTSGMYLGEIVRQILIDLTKQGLLFRGQISERLRTRGIFETKFLSQIESDRLALLQVRRILQQLGLDSTCEDSIVVKEVCGAVSRRAAQLCGAGLAAIVEKRREDQGLEHLRITVGVDGTLYKLHPHFSRILQETVKELAPRCDVTFMLSEDGSGKGAALITAVAKRLQQAQKEN
For the molecule B1, the binding result is “binds”.
